Values of other authors as cited in PMC4335872, “Pharmacokinetic-Pharmacodynamic Analysis of Spiroindolone Analogs and KAE609 in a Murine Malaria Model” (Antimicrobial Agents and Chemotherapy, 2015).

Parameters: method as in PMID 24089407
Conditions: cited from earlier work

CCN(CC)CCCC(C)Nc1ccnc2cc(Cl)ccc12 (stereo not shown) [chloroquine]
PK-PD relationship (type of killing): time-dependent killing
